Reference: article PMC6525164
Results are given in words; binding and its absence hold for the method and conditions named. Binding seen in cells or lysates may run through a third protein. Some binding calls cover weakened binding; strength is not graded here.

Amino acid sequences for entries named in this document (tags omitted).
UniProt P35222: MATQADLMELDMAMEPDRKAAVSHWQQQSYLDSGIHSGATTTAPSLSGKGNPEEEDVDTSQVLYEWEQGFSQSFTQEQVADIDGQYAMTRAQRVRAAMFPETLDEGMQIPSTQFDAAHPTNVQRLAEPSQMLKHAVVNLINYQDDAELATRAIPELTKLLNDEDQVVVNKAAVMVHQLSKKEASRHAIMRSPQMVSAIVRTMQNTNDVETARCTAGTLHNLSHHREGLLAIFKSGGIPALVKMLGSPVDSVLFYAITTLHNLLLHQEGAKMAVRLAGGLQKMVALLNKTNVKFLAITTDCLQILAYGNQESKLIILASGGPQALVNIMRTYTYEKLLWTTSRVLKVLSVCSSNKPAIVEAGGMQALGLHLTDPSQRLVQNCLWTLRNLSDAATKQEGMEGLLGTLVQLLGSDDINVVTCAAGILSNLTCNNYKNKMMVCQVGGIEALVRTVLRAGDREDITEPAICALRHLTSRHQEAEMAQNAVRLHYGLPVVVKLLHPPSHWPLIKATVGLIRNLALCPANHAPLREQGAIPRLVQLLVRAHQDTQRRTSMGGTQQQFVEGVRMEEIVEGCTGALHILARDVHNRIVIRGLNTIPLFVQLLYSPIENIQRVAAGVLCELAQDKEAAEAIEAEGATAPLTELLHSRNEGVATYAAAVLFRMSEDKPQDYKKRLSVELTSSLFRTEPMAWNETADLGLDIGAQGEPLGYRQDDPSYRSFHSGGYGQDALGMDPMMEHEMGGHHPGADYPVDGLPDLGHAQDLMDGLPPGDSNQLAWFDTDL
UniProt P46940: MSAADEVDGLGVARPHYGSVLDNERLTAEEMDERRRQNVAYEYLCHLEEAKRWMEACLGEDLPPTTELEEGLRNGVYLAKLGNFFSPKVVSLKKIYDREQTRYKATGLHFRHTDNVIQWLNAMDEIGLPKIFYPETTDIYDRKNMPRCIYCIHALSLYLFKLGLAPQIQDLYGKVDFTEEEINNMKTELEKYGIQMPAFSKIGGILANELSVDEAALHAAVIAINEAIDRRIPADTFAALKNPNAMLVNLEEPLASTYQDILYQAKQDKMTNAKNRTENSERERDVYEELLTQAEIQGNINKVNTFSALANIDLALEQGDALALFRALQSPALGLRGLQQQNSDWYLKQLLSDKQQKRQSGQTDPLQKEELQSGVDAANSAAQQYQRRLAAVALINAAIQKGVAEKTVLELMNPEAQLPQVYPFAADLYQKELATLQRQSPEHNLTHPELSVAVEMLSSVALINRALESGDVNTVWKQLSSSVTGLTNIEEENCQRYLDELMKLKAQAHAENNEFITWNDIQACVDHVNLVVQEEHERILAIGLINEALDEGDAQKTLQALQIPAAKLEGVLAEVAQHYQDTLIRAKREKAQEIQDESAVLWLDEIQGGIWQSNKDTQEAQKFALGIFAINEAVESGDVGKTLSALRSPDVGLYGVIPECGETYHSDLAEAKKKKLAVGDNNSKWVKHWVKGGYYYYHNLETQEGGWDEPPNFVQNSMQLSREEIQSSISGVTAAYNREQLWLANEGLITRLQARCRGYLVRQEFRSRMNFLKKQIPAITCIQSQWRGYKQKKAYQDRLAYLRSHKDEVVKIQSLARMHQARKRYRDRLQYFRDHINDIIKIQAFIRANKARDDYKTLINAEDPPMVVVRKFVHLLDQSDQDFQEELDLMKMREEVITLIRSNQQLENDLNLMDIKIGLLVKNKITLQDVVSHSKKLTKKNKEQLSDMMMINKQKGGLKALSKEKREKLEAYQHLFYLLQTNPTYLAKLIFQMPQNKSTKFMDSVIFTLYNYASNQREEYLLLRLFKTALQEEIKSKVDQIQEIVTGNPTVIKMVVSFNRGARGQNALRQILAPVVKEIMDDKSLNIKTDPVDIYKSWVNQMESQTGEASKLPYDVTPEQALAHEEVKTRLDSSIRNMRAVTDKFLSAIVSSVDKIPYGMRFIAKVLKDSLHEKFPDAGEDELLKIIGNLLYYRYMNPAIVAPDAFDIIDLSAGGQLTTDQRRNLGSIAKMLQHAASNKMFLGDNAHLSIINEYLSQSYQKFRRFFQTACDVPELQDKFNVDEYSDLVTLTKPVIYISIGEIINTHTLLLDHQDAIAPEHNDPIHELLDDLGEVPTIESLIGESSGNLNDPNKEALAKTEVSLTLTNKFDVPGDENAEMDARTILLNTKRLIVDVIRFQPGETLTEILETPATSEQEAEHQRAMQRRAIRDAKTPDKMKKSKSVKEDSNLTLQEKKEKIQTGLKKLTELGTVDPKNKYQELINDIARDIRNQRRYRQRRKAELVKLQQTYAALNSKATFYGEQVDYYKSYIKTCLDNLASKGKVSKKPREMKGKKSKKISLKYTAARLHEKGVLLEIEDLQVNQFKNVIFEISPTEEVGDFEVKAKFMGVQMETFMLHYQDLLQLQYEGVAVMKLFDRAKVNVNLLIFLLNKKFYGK

Molecular target: β-catenin (human (endogenous in SW1990, CFPAC-1)) (UniProt P35222)
Test: co-IP; endogenous proteins in non-transfected HEK293T, SW1990 and CFPAC-1 cells; for DVL2 with β-catenin also SW1990 and CFPAC-1 cells with knock-down of IQGAP1 (interaction reduced); which protein was precipitated is not given

binding: binds
Substance: IQ motif-containing GTPase-activating protein 1 (from UniProt P46940 1-1657)
